Results on 1 substance are retold here after publication PMC6018630.

Sequences of proteins named here, by UniProt entry; tags and fusion partners are left off. Residues count along the entry.
UniProt P47774, residues 25-378: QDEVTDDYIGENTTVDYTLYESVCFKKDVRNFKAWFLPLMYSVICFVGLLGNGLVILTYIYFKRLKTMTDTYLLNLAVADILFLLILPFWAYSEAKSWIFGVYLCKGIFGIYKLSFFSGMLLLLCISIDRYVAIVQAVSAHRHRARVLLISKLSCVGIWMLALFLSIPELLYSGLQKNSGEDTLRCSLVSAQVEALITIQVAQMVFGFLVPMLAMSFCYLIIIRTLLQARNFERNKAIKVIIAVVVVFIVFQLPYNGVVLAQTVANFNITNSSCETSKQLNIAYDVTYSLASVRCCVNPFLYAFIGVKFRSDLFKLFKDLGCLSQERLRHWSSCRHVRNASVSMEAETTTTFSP

These are yes or no findings as the source states them, for the method shown. Binding seen in cells or lysates may run through a third protein. Some entries that bind do so weakly or less than the wild type.

The test deals with CCR7 (mouse (endogenous in bone marrow-derived DCs)) (UniProt P47774). The experiment in a line: FRET or BRET; flow-cytometric FRET between PE-labelled and APC-labelled anti-CCR7 (clone 4B12, 1:200, 45 min, 37 °C, Fc block) on BMDCs left unstimulated or stimulated with LPS or HDM, with or without 10 mM glucose or 10 mM 2-DG for 6 h; BD LSR Fortessa without compensation.

Regarding “CCR7 (from UniProt P47774 25-378) (receptor)”, the binding entry is listed as “binds”.
